## Screening data, single-dose tests

The values are deposited in ChEMBL (CHEMBL3988442, “University of Dundee, Small-Polar-MMV Screening Library” (2021)).

Mtb cholesterol medium: 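Whole-cell growth test on Mycobacterium tuberculosis, read after 4 days in a medium based on cholesterol and the lipid DPPC; the read-out is not stated. Concentration: 50 µM. The record gives no direction; compounds that gave an IC50 in retests scored well above the rest, so higher reads as more growth inhibition. About 69,000 compounds were tested under these conditions; 0.54% (about 370) showed 50% or more at least once.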
Mtb glucose medium: 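Phenotypic screen: M. tuberculosis growth, glucose 7H9 medium, 3 days; the read-out is not stated. Tested at 50 µM. Direction is inferred from retests: higher values go with more growth inhibition. About 69,000 compounds were tested under these conditions; 1.1% (about 760) showed 50% or more at least once.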

Results are given as percent effect.
The controls that fix the scale are not given in the record; negative values are as filed.
This is an unselected part of the compounds tested.
Two or more numbers in one place are separate tests of the same structure; such repeats can differ widely.

structure,Mtb cholesterol medium,Mtb glucose medium
Cc1cc(C)n(CC(C)CNC(=O)NCc2c(C)cc(C)[nH]c2=O)n1 (centres undefined),9.934%,9.133%
[H][C@]12CN(Cc3cccnc3OC)CC[C@@]1(O)CCN(C(=O)C1CCC1)C2,2.648%,-5.482%
CC1(C(=O)N2CCOCC2)CN(CC2CCOCC2)CCO1 (centres undefined),-6.224% & 4.44%,-6.944%
Cc1nc(Nc2nnc(C)s2)cc(C2CCCN2C(C)C)n1 (centres undefined),-6.057%,-25.71%
Cn1ncc2c1NC(=O)CC2c1c(Cl)cccc1Cl (centres undefined),6.04%,23.21%
Cc1ccc(CSc2nc(N)cc(NCCC(N)=O)n2)cc1,5.758%,6.131% & 7.158%
Cc1ccsc1C(=O)N1CC2CC1(C(=O)NCc1ccco1)C2,-37.72%,-43.29%
Cc1ccc(-c2nnc(CN3CC[C@H](CO)[C@@H](O)C3)o2)n1C,-10.4%,16.46%
CN(C)c1ncc(I)c(C2CCCN2C)n1.Cl (centres undefined),9.128%,5.527%
Cc1noc(C)c1-c1cccc(C2CN(CC(=O)N(C)C)CCO2)n1.O=CO (centres undefined),49.42% & -1.526%,-37.38%
CN(C)C(=O)N1CCc2c(nnn2C)C1COCc1ccccc1 (centres undefined),16.85%,13.54%
CS(=O)(=O)c1ncc(CN2CCN3CCCC3C2)n1CC1CCCCC1 (centres undefined),2.659%,25.65%
O=C(c1ccco1)N1CCCC2(CCN(CCN3CCCC3)C2=O)C1 (centres undefined),-21.5%,7.583% & -0.2575%
CCN(CC)C(=O)c1ccc(-n2ncc(C#N)c2N)cc1,-33.65%,-38.79%
COCCc1noc(CN2CCCC(Cn3cncn3)C2)n1 (centres undefined),-3.775%,12.91%
CC(C)N(Cc1cccc(Cl)c1)Cc1nc2c(cnn2C)c(=O)[nH]1,-1.431%,-4.915%
CC(C)c1nnsc1CNC(=O)C1CCN(C(=O)C2CCC2)CC1,5.793%,0.969%
Cc1cc(C)n(CC2CCN(CC(O)COc3ccccc3)CC2)n1 (centres undefined),-6.795%,5.831%
CC(C)CN1CC2(CCN(C(=O)c3nc4ncccn4n3)CC2)CC1=O,11.13%,-24.44%
CN(C)S(=O)(=O)N1CCC(C)(c2ncc(C(N)=O)s2)CC1,6.834%,21.46%
Fc1ccc(CNCc2cc(Br)c3c(c2)OCO3)cc1,-24.9%,-72.36%
Cc1nc(C(C)C)sc1C(=O)NCCSc1ccccn1,9.517%,23.3% & 13.26%
CCN(C(=O)CN1CCCC1c1c(C)nn(C)c1OC)C1CC1 (centres undefined),-15.48%,-14.98%
CC(C)NS(=O)(=O)c1cc(C(=O)O)cc(-c2ccccc2CN(C)C)c1,18.31%,23.37%
NC(=O)CC1CCN(C(=O)NCC2(c3ccccc3F)CC2)CC1,2.027%,21.92%
Cc1ccc(N2CCCC(NCc3nc(C)c(C)o3)C2)nn1 (centres undefined),11.28%,10.49%
COc1ccc2c(c1)CCCN(CC(=O)NCC1CCCO1)C2 (centres undefined),25.01%,27.48%
CS(=O)(=O)NCC1CCCCN1C(=O)Nc1cccnc1N1CCCC1 (centres undefined),9.246%,-5.805% & -31.38%
COCCNC(=O)c1cnc(N(C)C)nc1C,8.621%,20.23%
COc1ncccc1CNC(=O)N(Cc1ccc(F)cc1F)C1CC1,11.45%,-28.77% & 13.5%
Cn1cc(C(=O)N2CCCC(c3ccncc3)C2)cn1 (centres undefined),-10.83%,17.9%
CN(C)CC(=O)N1CCC2(CC1)COCCN(c1ncccn1)C2,-32.39%,-39.83%
O=C(Nc1cc(Cl)ccc1N1CCCCC1)c1ccccn1,-2.965%,-25.91%
CCCNC(=O)Nc1cccc2c1CCN(S(C)(=O)=O)C2,-5.447%,-4.236% & -4.843%
Cc1csc(N2CCN(C(=O)NCCNc3ncccn3)CC2)n1,-16.82%,-6.382%
O=C(NCC1(O)CCCCC1)c1coc(COc2cccc(F)c2)n1,-0.3499% & -6.873%,-8.038% & 0.4974%
Cc1nc2c(c(=O)[nH]1)CN(C(=O)CCC1CCCN(C)C1)C2 (centres undefined),-0.9589%,-10.08%
CNc1nc(CNC(=O)Nc2cccc(Cl)c2Cl)cs1,14.3%,3.581%
c1ccc(-c2cnc(CN(Cc3cccnc3)CC3CCCO3)o2)cc1 (centres undefined),-13.69%,6.085%
Cc1noc(C)c1CNCC1CCN(CC(O)c2ccccc2)CC1 (centres undefined),2.528%,0.249%
CC1(C)[C@H](Cc2cc(CN3CCOCC3)on2)C[C@@H]1NC(=O)C1CCC1,-27.1%,-39.81% & -8.359%
CCc1nc2n(n1)CC(NCc1nc(Cc3ccccc3)no1)CC2 (centres undefined),-22.55%,-13.34%
CC(C)(C)NS(=O)(=O)c1ccccc1CNCc1ccccc1,13.09%,15.34%
O=C(Cc1ccccc1)N1CCCC2(COCCN(CC3CC3)C2)C1.O=C(O)C(F)(F)F (centres undefined),-14.74%,-24.26%
Cc1ccc(NC(=O)C2CSCN2C(=O)c2cnn(C)c2)c(C)c1 (centres undefined),17.07%,-34.76%
Cc1cnn(Cc2cccc(OCC(N)=O)c2)c1,-12.79%,-16.43%
O=C(c1ccco1)N1CCc2ncc(CN3CCOCC3)n2CC1,-13.25% & -14.59%,-30.39%
Fc1cnc(N2CCCn3cnc(COc4cccnc4)c3C2)nc1.O=C(O)C(F)(F)F,-4.989%,-3.291%
Cc1noc([C@@H]2C[C@H](NC(=O)C3CCCCC3)CN2C)n1,-13.92%,-36.66% & -8.394%
COc1cc(Cl)ccc1CNC(=O)N(C)C(C)CS(C)(=O)=O (centres undefined),-4.006%,2.881% & 1.345%
O=C(NCCc1ccccc1Cl)NCC1(O)CCSC1 (centres undefined),7.611%,27.55%
CCn1ccnc1C1CCN(Cc2cccc(Cl)c2)CC1,-0.4344%,-14.6% & -2.857%
Cc1nc(C)n(CC2CCCN2Cc2ccc(F)cc2C#N)n1 (centres undefined),-8.55%,10.73%
Cc1nnc2n1CCN(Cc1c(Cl)ccc3cccnc13)C2,-33.85%,-41.68%
Cc1cnn(CC2CCCCN2CC(=O)N(C)Cc2ccc(C)o2)c1 (centres undefined),6.648%,-4.148% & 7.57%
O=C(CC1CC1)N1CCC(O)(CN2CCN(c3ccccc3)CC2)C1 (centres undefined),8.152%,12.35%
O=C(NCCc1cc(N2CCOCC2)nc(N2CCCC2)n1)C1CC1,-1.258% & 3.87%,-2.966%
Nc1cc2c(nn1)CCN(C(=O)Cc1ccc3c(c1)CCCC3)C2,-12.11%,-6.767%
Cc1noc(C)c1C(=O)N[C@@H]1CCC[C@@H](Oc2ccccc2)[C@@H]1O,-2.498% & -6.018%,8.413%
Cc1cccc(CN2CCc3[nH]nc(C(=O)N4CCNC(=O)C4)c3C2)n1.O=C(O)C(F)(F)F,14.9%,-5.327% & 7.816%
[H][C@@]12CCN(Cc3ccco3)C[C@@]1([H])O[C@H](c1ccnc(C(C)C)n1)C2,-46.9%,-20.76%
O=C(O)C(F)(F)F.O=C(O)C(F)(F)F.c1cnc(N2CCC3(CCN(CC4CCOC4)CC3)CC2)nc1 (centres undefined),-5.266%,-8.251%
Cc1n[nH]c2c1C(c1cccnc1)SCC(=O)N2 (centres undefined),-0.1867%,3.293%
[H][C@@]12CCN(C(=O)c3cccs3)CC[C@@]1([H])N(S(C)(=O)=O)CCO2,2.427%,3.522% & -26.7%
OC(CNCCn1cccn1)c1cccc(Br)c1 (centres undefined),12.82%,4.407%
COc1cc(CCC(C)O)c(OC)c2c1OCO2 (centres undefined),-16.17%,9.077%
O=C1CC(c2ccccc2)c2cnn(C3CCCC3)c2N1 (centres undefined),13.11%,14.34%
CCN(Cc1ccoc1)C(=O)c1cc(C)c(C)c(S(N)(=O)=O)c1,6.507%,7.328%

For reference, 8 entries once more:

* Cc1cc(C)n(CC2CCN(CC(O)COc3ccccc3)CC2)n1 (centres undefined) : Mtb cholesterol medium: -6.795%; Mtb glucose medium: 5.831%
* O=C(c1ccco1)N1CCc2ncc(CN3CCOCC3)n2CC1 : Mtb cholesterol medium: -13.25% & -14.59%; Mtb glucose medium: -30.39%
* Cc1nnc2n1CCN(Cc1c(Cl)ccc3cccnc13)C2 : Mtb cholesterol medium: -33.85%; Mtb glucose medium: -41.68%
* Cc1nc(Nc2nnc(C)s2)cc(C2CCCN2C(C)C)n1 (centres undefined) : Mtb cholesterol medium: -6.057%; Mtb glucose medium: -25.71%
* CC(C)NS(=O)(=O)c1cc(C(=O)O)cc(-c2ccccc2CN(C)C)c1 : Mtb cholesterol medium: 18.31%; Mtb glucose medium: 23.37%
* Cn1cc(C(=O)N2CCCC(c3ccncc3)C2)cn1 (centres undefined) : Mtb cholesterol medium: -10.83%; Mtb glucose medium: 17.9%
* COc1cc(Cl)ccc1CNC(=O)N(C)C(C)CS(C)(=O)=O (centres undefined) : Mtb cholesterol medium: -4.006%; Mtb glucose medium: 2.881% & 1.345%
* CC(C)c1nnsc1CNC(=O)C1CCN(C(=O)C2CCC2)CC1 : Mtb cholesterol medium: 5.793%; Mtb glucose medium: 0.969%